The test relates to Male Sprague-Dawley rats. Briefly: Potentiation of morphine-induced analgesia and morphine-dose sparing, paw pressure test (Example 4).

The record followed here is patent publication US20200171022A1, “FLT3 INHIBITORS FOR IMPROVING PAIN TREATMENTS BY OPIOIDS” (INSERM (Institut National de la Santé et da la Recherche …, priority 2017, published 2020).

The structures appear in SMILES notation.

For the compound `CN1CC[C@]23c4c5ccc(O)c4O[C@H]2[C@@H](O)C=C[C@H]3[C@H]1C5` [morphine], the ED50 (Rattus norvegicus, read-out: ED50 of morphine (dose-response in AUC) with BDT001) came to 1.56 mg/kg. Also, the “ED50 of morphine (dose-response in AUC) without BDT001” value (morphine alone s.c.) turned out to be 1.11 mg/kg.
